We go through two substances from patent US6946544.

Amino acid sequences for entries named in this document (tags omitted). A change or cut given only in a name is not applied to a line headed by its entry.
UniProt Q13489: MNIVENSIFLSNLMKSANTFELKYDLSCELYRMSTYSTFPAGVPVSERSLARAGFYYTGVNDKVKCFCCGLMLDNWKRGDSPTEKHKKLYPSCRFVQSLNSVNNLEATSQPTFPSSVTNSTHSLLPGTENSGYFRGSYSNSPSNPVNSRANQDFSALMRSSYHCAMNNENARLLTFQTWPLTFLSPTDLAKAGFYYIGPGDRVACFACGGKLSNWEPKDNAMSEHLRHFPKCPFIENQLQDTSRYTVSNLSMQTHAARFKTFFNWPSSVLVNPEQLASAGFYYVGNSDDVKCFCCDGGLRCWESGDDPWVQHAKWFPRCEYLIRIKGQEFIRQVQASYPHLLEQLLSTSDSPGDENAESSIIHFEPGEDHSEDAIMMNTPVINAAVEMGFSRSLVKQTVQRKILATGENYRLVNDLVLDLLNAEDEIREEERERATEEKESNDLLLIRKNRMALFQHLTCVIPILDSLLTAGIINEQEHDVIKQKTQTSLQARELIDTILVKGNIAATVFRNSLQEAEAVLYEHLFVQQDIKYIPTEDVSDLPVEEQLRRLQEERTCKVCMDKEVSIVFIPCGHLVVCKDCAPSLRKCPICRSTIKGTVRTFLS
UniProt P04386: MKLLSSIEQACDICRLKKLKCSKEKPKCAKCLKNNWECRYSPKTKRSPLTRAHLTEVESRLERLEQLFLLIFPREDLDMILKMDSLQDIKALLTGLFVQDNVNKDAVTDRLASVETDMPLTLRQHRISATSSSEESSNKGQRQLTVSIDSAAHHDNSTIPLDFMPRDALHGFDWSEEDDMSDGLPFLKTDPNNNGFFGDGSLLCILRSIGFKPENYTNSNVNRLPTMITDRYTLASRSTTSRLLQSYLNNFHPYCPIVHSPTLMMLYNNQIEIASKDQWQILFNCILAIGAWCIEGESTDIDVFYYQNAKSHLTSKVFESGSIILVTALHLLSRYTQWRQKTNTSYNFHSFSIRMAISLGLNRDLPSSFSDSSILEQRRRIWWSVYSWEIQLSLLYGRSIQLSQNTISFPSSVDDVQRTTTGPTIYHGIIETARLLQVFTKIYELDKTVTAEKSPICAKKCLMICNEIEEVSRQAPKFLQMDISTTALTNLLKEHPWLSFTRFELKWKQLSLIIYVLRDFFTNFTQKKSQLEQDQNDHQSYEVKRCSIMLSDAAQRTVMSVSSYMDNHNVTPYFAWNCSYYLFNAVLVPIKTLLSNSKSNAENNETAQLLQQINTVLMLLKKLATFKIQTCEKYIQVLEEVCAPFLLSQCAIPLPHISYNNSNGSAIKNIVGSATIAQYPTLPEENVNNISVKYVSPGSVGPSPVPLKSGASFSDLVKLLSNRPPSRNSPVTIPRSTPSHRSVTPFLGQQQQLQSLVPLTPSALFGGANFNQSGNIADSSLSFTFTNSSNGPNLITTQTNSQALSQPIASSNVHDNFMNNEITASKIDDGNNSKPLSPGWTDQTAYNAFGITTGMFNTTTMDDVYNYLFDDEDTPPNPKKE

Results are given in words; binding and its absence hold for the method and conditions named. For some assays here: In cells and extracts the contact can be indirect. Some binding calls cover weakened binding; strength is not graded here. For some assays here: Tags and fused reporters may be left off the sequences shown.

The target in assay [1] is T1, GST-XAF-1 fusion protein (Schistosoma japonicum; human) (UniProt Q6GPH4).
T1 sequence: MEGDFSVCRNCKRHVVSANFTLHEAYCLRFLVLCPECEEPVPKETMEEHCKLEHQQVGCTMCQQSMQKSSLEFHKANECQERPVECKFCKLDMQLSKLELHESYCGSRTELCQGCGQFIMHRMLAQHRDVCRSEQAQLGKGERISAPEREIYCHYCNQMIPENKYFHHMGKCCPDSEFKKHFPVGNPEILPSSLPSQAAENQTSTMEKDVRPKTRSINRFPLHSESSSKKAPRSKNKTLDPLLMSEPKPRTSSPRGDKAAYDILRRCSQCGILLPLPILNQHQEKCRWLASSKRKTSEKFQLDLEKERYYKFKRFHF
The assay is described as follows: pull-down of 35S-labeled in vitro translated protein on GST-XAF-1 beads, cell-free, SDS-PAGE and autoradiography.

Assay [2] has as its target T2, XAF-1 (XIAP associated factor 1), clone from the human placenta cDNA library in the yeast two-hybrid screen (human) (UniProt Q6GPH4).
T2 sequence: T1 sequence
Briefly: yeast two-hybrid screen, XIAP as bait.

In the case of “35S-labeled in vitro translated HIAP-1 (from UniProt Q13489 1-604)”, in assay [1], the binding entry is “binds”.

Take “GAL4 DNA-binding domain fused to full-length XIAP (pAS2-XIAP bait) (from UniProt P04386 1-147; P98170 1-497)”: the binding result in assay [2] was “binds”.
